According to article PMC5833644:

Target: T1, MUC13 (human (endogenous in HPAF-II and AsPC1)) (UniProt Q9H3R2)
T1 sequence: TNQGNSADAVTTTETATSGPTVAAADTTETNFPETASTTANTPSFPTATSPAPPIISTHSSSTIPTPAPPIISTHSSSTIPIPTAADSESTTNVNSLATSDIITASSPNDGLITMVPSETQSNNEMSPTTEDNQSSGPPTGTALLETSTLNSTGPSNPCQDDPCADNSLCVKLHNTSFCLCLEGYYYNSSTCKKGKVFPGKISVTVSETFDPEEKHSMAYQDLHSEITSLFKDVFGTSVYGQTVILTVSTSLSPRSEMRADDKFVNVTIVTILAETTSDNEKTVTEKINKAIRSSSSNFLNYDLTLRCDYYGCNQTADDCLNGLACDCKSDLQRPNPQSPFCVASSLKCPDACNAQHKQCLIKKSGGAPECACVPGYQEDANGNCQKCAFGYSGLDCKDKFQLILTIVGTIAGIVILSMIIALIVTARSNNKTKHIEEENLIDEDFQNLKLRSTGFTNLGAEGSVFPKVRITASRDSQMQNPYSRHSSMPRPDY
Assay: co-capping assay; HPAF-II and AsPC1 cells incubated with NHS-Rhodamine-labeled anti-MUC13 mAb (30 µg/ml) 1 h at 4 °C, plated at 37 °C for about 2 h, then stained for Glut-1 or α-tubulin; confocal microscopy

binding: no binding
Substance: alpha-tubulin (human (endogenous in HPAF-II))

No constants are given. Whether binding was seen depends on the method and setting.
